PMC11870743, “Endothelial OX40 activation facilitates tumor cell escape from T cell surveillance through S1P/YAP-mediated angiogenesis” (The Journal of Clinical Investigation, 2025)
No constants are given. Whether binding was seen depends on the method and setting. Binding seen in cells or lysates may run through a third protein. Some entries that bind do so weakly or less than the wild type.

Chains of the proteins cited; added tags and fusions are not shown. Residues count along the entry.
UniProt P43489, residues 29-277: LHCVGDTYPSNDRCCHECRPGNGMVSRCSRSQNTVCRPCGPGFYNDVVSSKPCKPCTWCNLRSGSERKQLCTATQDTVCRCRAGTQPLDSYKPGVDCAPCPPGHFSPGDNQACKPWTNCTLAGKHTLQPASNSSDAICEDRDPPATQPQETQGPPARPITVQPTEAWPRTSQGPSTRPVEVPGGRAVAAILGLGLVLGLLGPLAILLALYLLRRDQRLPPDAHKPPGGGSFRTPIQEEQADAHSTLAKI

Key:
[1] = target: OX40 (human (endogenous in HUVEC)) (UniProt P43489); assay: co-IP; HUVECs treated with vehicle for 48 hours; lysates immunoprecipitated with an anti-OX40 antibody, blotted
[2] = target: OX40 (human (endogenous in HUVEC)) (UniProt P43489); assay: co-IP; HUVECs treated with human OX40L protein (100 ng/mL) for 48 hours; lysates immunoprecipitated with an anti-OX40 antibody, blotted

B1: Spns lysolipid transporter 2 (Spns2) (protein, UniProt Q8IVW8 1-549)
chain: MMCLECASAAAGGAEEEEADAERRRRRRGAQRGAGGSGCCGARGAGGAGVSAAGDEVQTLSGSVRRAPTGPPGTPGTPGCAATAKGPGAQQPKPASLGRGRGAAAAILSLGNVLNYLDRYTVAGVLLDIQQHFGVKDRGAGLLQSVFICSFMVAAPIFGYLGDRFNRKVILSCGIFFWSAVTFSSSFIPQQYFWLLVLSRGLVGIGEASYSTIAPTIIGDLFTKNTRTLMLSVFYFAIPLGSGLGYITGSSVKQAAGDWHWALRVSPVLGMITGTLILILVPATKRGHADQLGDQLKARTSWLRDMKALIRNRSYVFSSLATSAVSFATGALGMWIPLYLHRAQVVQKTAETCNSPPCGAKDSLIFGAITCFTGFLGVVTGAGATRWCRLKTQRADPLVCAVGMLGSAIFICLIFVAAKSSIVGAYICIFVGETLLFSNWAITADILMYVVIPTRRATAVALQSFTSHLLGDAGSPYLIGFISDLIRQSTKDSPLWEFLSLGYALMLCPFVVVLGGMFFLATALFFVSDRARAEQQVNQLAMPPASVKV
binding [1]: binds weakly | binding [2]: binds
